Reference: PubChem BioAssay AID1259308 (NCATS, 2017)

Assay: 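Genes whose loss raises luciferase production in HEK293 cells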 (primary screen)
System: human HEK293 embryonic kidney cells stably expressing firefly luciferase (HEK-CMV-Luc2-Hygro)
Reagents: single siRNA against human genes, 0.8 pmol siRNA per well
Timing: 72 h
Measurement: 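Luciferase light (ONE-Glo) measured on one replicate plate set and viability (CellTiter-Glo) on the other, scaled to a negative control siRNA, with robust z-scores and luciferase per cell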
Reading the numbers: total luciferase, z-score and total luciferase, % of control: higher = more reporter protein produced; luciferase per cell, z-score: higher = more reporter output per viable cell; viable cells, % of control: higher = more viable cells
Active means: 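An siRNA counts as active if its total luciferase robust z-score exceeds 3; genes with two or more such siRNAs out of three were retested with fresh siRNAs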
Calls: active = raised luciferase; inactive = no rise
In all, the deposit lists about 59,000 reagents; this is a random part of them. In the full data, about 1,510 (2.6%) got an active call. 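Calls use total luciferase alone and ignore viability, so some active siRNAs may act by altering cell number.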 The numbers tell different reagents against one gene apart.

| gene symbol | reagent | total luciferase, z-score | total luciferase, % of control | luciferase per cell, z-score | viable cells, % of control | outcome |
| --- | --- | --- | --- | --- | --- | --- |
| ATP6V1A (ATPase H+ transporting V1 subunit A) | 1 | -1.11 | 59.9 | -1.07 | 88.7 | inactive |
| ATP6V1A (ATPase H+ transporting V1 subunit A) | 2 | -0.296 | 76 | -0.82 | 105 | inactive |
| ATP6V1A (ATPase H+ transporting V1 subunit A) | 3 | -0.173 | 78.4 | -0.736 | 106 | inactive |
| MADD (MAP kinase activating death domain) | 1 | -0.0685 | 80.5 | 0.049 | 88.8 | inactive |
| MADD (MAP kinase activating death domain) | 2 | -0.181 | 78.3 | -0.577 | 102 | inactive |
| MADD (MAP kinase activating death domain) | 3 | -0.258 | 76.7 | -0.212 | 90.7 | inactive |
| POLA2 (DNA polymerase alpha 2, accessory subunit) | 1 | -0.435 | 73.2 | -0.604 | 95.9 | inactive |
| POLA2 (DNA polymerase alpha 2, accessory subunit) | 2 | -1.22 | 57.7 | -1.13 | 86.7 | inactive |
| POLA2 (DNA polymerase alpha 2, accessory subunit) | 3 | -1.64 | 49.3 | -1.97 | 92.4 | inactive |
| ZNF670 (zinc finger protein 670) | 1 | 0.873 | 99.2 | 1.37 | 77.3 | inactive |
| ZNF670 (zinc finger protein 670) | 2 | 1.31 | 108 | 1.17 | 88.7 | inactive |
| ZNF670 (zinc finger protein 670) | 3 | -2.33 | 35.5 | -1.68 | 61.7 | inactive |
| DLST (dihydrolipoamide S-succinyltransferase) | 1 | -1.24 | 57.2 | -0.386 | 70.7 | inactive |
| DLST (dihydrolipoamide S-succinyltransferase) | 2 | 0.173 | 85.3 | 1.31 | 67.5 | inactive |
| DLST (dihydrolipoamide S-succinyltransferase) | 3 | -1.29 | 56.2 | -1.4 | 90.8 | inactive |
| RBM22P1 (RNA binding motif protein 22 pseudogene 1) | 1 | -0.398 | 74 | -0.433 | 92.6 | inactive |
| RBM22P1 (RNA binding motif protein 22 pseudogene 1) | 2 | -0.418 | 73.6 | -0.537 | 94.7 | inactive |
| RBM22P1 (RNA binding motif protein 22 pseudogene 1) | 3 | -0.261 | 76.7 | -0.217 | 90.7 | inactive |
| OGN (osteoglycin) | 1 | 0.299 | 87.8 | 0.706 | 81.5 | inactive |
| OGN (osteoglycin) | 2 | -0.966 | 62.7 | -1.54 | 105 | inactive |
| OGN (osteoglycin) | 3 | -0.513 | 71.7 | 0.23 | 75.4 | inactive |
| HEYL | 1 | -2.87 | 24.7 | -4.66 | 94.2 | inactive |
| HEYL | 2 | -1.81 | 45.9 | -1.71 | 80.3 | inactive |
| HEYL | 3 | 0.183 | 85.5 | -0.606 | 112 | inactive |
| DROSHA (drosha ribonuclease III) | 1 | -0.282 | 76.3 | -0.604 | 99.9 | inactive |
| DROSHA (drosha ribonuclease III) | 2 | 1.45 | 111 | 1.09 | 93 | inactive |
| DROSHA (drosha ribonuclease III) | 3 | 0.189 | 85.6 | -0.165 | 99.9 | inactive |
| ITGA4 (integrin subunit alpha 4) | 1 | -1.11 | 59.8 | -1.78 | 107 | inactive |
| ITGA4 (integrin subunit alpha 4) | 2 | 0.762 | 97 | 0.79 | 88.1 | inactive |
| ITGA4 (integrin subunit alpha 4) | 3 | 0.786 | 97.5 | 0.0667 | 107 | inactive |
| LOC728667 (dehydrogenase/reductase 4 like 2 pseudogene) | 1 | -0.285 | 76.2 | -0.208 | 90 | inactive |
| LOC728667 (dehydrogenase/reductase 4 like 2 pseudogene) | 2 | 0.349 | 88.8 | 0.544 | 86 | inactive |
| LOC728667 (dehydrogenase/reductase 4 like 2 pseudogene) | 3 | 0.455 | 90.9 | 0.487 | 89.4 | inactive |
| BARHL2 (BarH like homeobox 2) | 1 | 0.0989 | 83.9 | -0.266 | 101 | inactive |
| BARHL2 (BarH like homeobox 2) | 2 | -0.481 | 72.3 | -0.345 | 88.5 | inactive |
| BARHL2 (BarH like homeobox 2) | 3 | -2.95 | 23.2 | -2.25 | 46.8 | inactive |

Reformatted: 3 of the entries above
gene symbol,reagent,"total luciferase, z-score","total luciferase, % of control","luciferase per cell, z-score","viable cells, % of control",outcome
LOC728667 (dehydrogenase/reductase 4 like 2 pseudogene),3,0.455,90.9,0.487,89.4,inactive
BARHL2 (BarH like homeobox 2),1,0.0989,83.9,-0.266,101,inactive
BARHL2 (BarH like homeobox 2),2,-0.481,72.3,-0.345,88.5,inactive

Additional records follow:
| gene symbol | reagent | total luciferase, z-score | total luciferase, % of control | luciferase per cell, z-score | viable cells, % of control | outcome |
| --- | --- | --- | --- | --- | --- | --- |
| CFD (complement factor D) | 1 | 2.5 | 132 | 1.79 | 91.8 | inactive |
| CFD (complement factor D) | 2 | 0.137 | 84.6 | -0.322 | 103 | inactive |
| CFD (complement factor D) | 3 | 1.65 | 115 | 0.998 | 98.5 | inactive |
| RGS3 (regulator of G protein signaling 3) | 1 | -0.494 | 72.1 | -1.28 | 113 | inactive |
| RGS3 (regulator of G protein signaling 3) | 2 | -0.644 | 69.1 | -1.26 | 108 | inactive |
| RGS3 (regulator of G protein signaling 3) | 3 | 0.89 | 99.6 | 2.59 | 56.3 | inactive |
| BCL11A (BCL11 transcription factor A) | 1 | 0.514 | 92.1 | 2.15 | 58.4 | inactive |
| BCL11A (BCL11 transcription factor A) | 2 | 0.432 | 90.5 | 0.765 | 82.7 | inactive |
| BCL11A (BCL11 transcription factor A) | 3 | 0.0532 | 82.9 | 0.0682 | 91 | inactive |
| BHLHA15 (basic helix-loop-helix family member a15) | 1 | 0.133 | 84.5 | -0.223 | 100 | inactive |
| BHLHA15 (basic helix-loop-helix family member a15) | 2 | 0.432 | 90.5 | -0.538 | 116 | inactive |
| BHLHA15 (basic helix-loop-helix family member a15) | 3 | 0.321 | 88.3 | 0.343 | 90.1 | inactive |
| GFRA3 (GDNF family receptor alpha 3) | 1 | -0.479 | 72.4 | 0.186 | 77 | inactive |
| GFRA3 (GDNF family receptor alpha 3) | 2 | -0.387 | 74.2 | 0.124 | 80.3 | inactive |
| GFRA3 (GDNF family receptor alpha 3) | 3 | 0.702 | 95.8 | 0.111 | 104 | inactive |
| IFI35 (interferon induced protein 35) | 1 | 0.479 | 91.4 | 0.638 | 86.3 | inactive |
| IFI35 (interferon induced protein 35) | 2 | 0.139 | 84.6 | -0.497 | 108 | inactive |
| IFI35 (interferon induced protein 35) | 3 | -0.752 | 66.9 | -0.298 | 80.9 | inactive |
| ATP5PF (ATP synthase peripheral stalk subunit F6) | 1 | 1.26 | 107 | 0.414 | 107 | inactive |
| ATP5PF (ATP synthase peripheral stalk subunit F6) | 2 | 0.172 | 85.3 | -0.136 | 98.8 | inactive |
| ATP5PF (ATP synthase peripheral stalk subunit F6) | 3 | 2.39 | 129 | 1.59 | 95.1 | inactive |
